Our source for the binding values is doi:10.1101/2025.06.30.651016.

No constants are given. Whether binding was seen depends on the method and setting. Binding seen in cells or lysates may run through a third protein. Binding calls can cover weak binding; strength is not graded here. Where a sequence is shown, tags or fusion partners need not be part of it.

The assay deals with T1, ASIC1a C-terminally tagged with GFP followed by 1D4 tag (human) (UniProt P78348).
T1 sequence: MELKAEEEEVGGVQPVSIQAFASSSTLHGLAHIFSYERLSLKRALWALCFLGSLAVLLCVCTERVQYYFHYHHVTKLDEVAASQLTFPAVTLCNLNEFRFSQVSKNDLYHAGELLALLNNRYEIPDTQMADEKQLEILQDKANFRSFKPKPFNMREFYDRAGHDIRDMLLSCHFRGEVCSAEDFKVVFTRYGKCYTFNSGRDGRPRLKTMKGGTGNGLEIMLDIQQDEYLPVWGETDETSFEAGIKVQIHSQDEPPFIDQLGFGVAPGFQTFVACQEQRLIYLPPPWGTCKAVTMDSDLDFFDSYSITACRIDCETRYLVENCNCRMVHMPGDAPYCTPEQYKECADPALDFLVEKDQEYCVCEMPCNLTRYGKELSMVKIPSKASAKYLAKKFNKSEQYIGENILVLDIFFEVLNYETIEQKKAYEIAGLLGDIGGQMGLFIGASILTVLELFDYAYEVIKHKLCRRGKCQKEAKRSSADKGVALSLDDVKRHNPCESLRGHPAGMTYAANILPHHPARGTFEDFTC
The experiment in a line: co-IP.
With “MCT1-CTD (truncated MCT1 comprised of only the C-terminal domain) (human) (domain or fragment)”, the binding result was “binds”.
For “MCT4-NTD (truncated MCT4 comprised of only the N-terminal domain) (human) (domain or fragment)”, the binding result is reported as “binds”.
As to “MCT4-CTD (truncated MCT4 comprised of only the C-terminal domain) (human) (domain or fragment)”, the binding result is listed as “binds”.
On to “MCT1-NTD (truncated MCT1 comprised of only the N-terminal domain) (human) (domain or fragment)”, for which the binding entry is on record as “binds”.
